Results are given in words; binding and its absence hold for the method and conditions named.
Molecular target: PG0352, dual domain sialidase of Porphyromonas gingivalis W83 (Porphyromonas gingivalis W83) (UniProt Q7MX62)
Test: SEC; Ni-NTA purified PG0352 dialysed in 50 mM Tris, 150 mM NaCl, pH 7.0, on Superdex 200; single large peak, estimated MW 52 kDa; both purified

B1: PG0352, dual domain sialidase of Porphyromonas gingivalis W83 (enzyme, UniProt Q7MX62 31-526)
chain: QEVTMWGDSHGVAPNQVRRTLVKVALSESLPPGAKQIRIGFSLPKETEEKVTALYLLVSDSLAVRDLPDYKGRVSYDSFPISKEDRTTALSADSVAGRRFFYLAADIGPVASFSRSDTLTARVEEVAVDGRPLPLKELSPASRRLYRGYEALFVPGDGGSRNYRIPAILKTANGTLIAMADRRKYNQTDLPEDIDIVMRRSTDGGKSWSDPRIIVQGEGRNHGFGDVALVQTQAGKLLMIFVGGVGLWQSTPDRPQRTYISESRDEGLTWSPPRDITHFIFGKDCADPGRSRWLASFCASGQGLVLPSGRITFVAAIRESGQEYVLNNYVLYSDDEGDTWQLSDCAYRRGDEAKLSLMPDGRVLMSIRNQGRQESRQRFFALSSDDGLTWERAKQFEGIHDPGCNGAMLQVKRNGRDQVLHSLPLGPDGRRDGAVYLFDHVSGRWSAPVVVNSGSSAYSDMTLLADGTIGYFVEEGDEISLVFIRFVLDDLFDVRQ
  binding: no binding

— publication PMC10553830, “Functional and structural analyses reveal that a dual domain sialidase protects bacteria from complement killing through desialylation of complement factors” (PLOS Pathogens, 2023)
